Data as given in PubChem BioAssay AID1259425 (University of Nebraska Medical Center, 2018).

- Purpose: 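Find knockdowns that reproduce the gene expression pattern seen when KSR1 is lost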 (primary screen)
- Cell system: HCT116 human colon cancer cells
- Reagents: siRNA pool against human genes, 50 nM siRNA
- Measured: 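After 50 nM siRNA pool, branched-DNA assay measures six marker transcripts per well, minus blank, normalised to the geometric mean of two housekeeping transcripts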
- Scale: BNIP3L mRNA: higher = more BNIP3L transcript after knockdown; NDRG1 mRNA: higher = more NDRG1 transcript after knockdown; BNIP3 mRNA: higher = more BNIP3 transcript after knockdown; ALDOC mRNA: higher = more ALDOC transcript after knockdown; ACSL5 mRNA: higher = more ACSL5 transcript after knockdown
The whole screen tested about 14,000 reagents; this is an unselected part. Not stated in the record: the time to read-out.

target gene,"BNIP3L mRNA, set 1","NDRG1 mRNA, set 1","BNIP3 mRNA, set 1","ALDOC mRNA, set 1","ACSL5 mRNA, set 1"
BEX3,0.117,0.131,0.349,0.0332,0.158
DNASE2B,0.0477,0.173,0.273,0.0355,0.129
PDE6H,0.0969,0.441,0.325,0.017,0.0645
ZNF285,0.296,0.302,0.704,0.0838,0.334
MEGF10,0.0874,0.135,0.226,0.0398,0.194
GAK,0.186,0.284,0.73,0.0164,0.177
NPY2R,0.204,0.269,0.245,0.0421,0.117
YTHDF2,0.185,0.123,0.367,0.0599,0.178
GSTP1,0.157,0.18,0.277,0.0273,0.0809
MCL1,0.104,0.246,0.286,0.0473,0.164
STX18,0.112,0.218,0.377,0.0351,0.0717
DNAJC10,0.101,0.249,0.303,0.0159,0.277
ASIC3,0.16,0.121,0.285,0.0242,0.0704
PELI1,0.142,0.271,0.401,0.0124,0.31
MAP4K4,0.09,0.0863,0.195,0.00704,0.15
ATCAY,0.12,0.36,0.296,0.101,0.227
ZW10,0.118,0.198,0.439,0.0216,0.23
FKBP1A,0.0556,0.174,0.234,0.0256,0.145
KIR2DS4,0.0659,0.175,0.355,0.012,0.188
GKAP1,0.0498,0.0629,0.211,0.0162,0.137
PPFIA1,0.102,1.34,0.222,0.0438,0.211
PHLPP1,0.113,0.151,0.226,0.025,0.0898
CETP,0.128,0.0575,0.321,0.0307,0.0624
RNF20,0.124,0.883,0.319,0.0293,0.255
ADAMTS9,0.125,0.133,0.308,0.0224,0.157
GATB,0.0852,0.19,0.243,0.0206,0.154
KRT82,0.0449,0.283,0.216,0.0163,0.285
CBX5,0.085,0.0433,0.276,0.0296,0.169
LINC00308,0.156,0.0887,0.128,0.0182,0.145
KIAA0087,0.259,0.765,0.419,0.0893,0.41

Continued (6 carried over from the part before).
target gene,"BNIP3L mRNA, set 1","NDRG1 mRNA, set 1","BNIP3 mRNA, set 1","ALDOC mRNA, set 1","ACSL5 mRNA, set 1"
ADAMTS9,0.125,0.133,0.308,0.0224,0.157
GATB,0.0852,0.19,0.243,0.0206,0.154
KRT82,0.0449,0.283,0.216,0.0163,0.285
CBX5,0.085,0.0433,0.276,0.0296,0.169
LINC00308,0.156,0.0887,0.128,0.0182,0.145
KIAA0087,0.259,0.765,0.419,0.0893,0.41
GAN,0.141,0.112,0.285,0.0135,0.289
SPO11,0.0797,0.0758,0.237,0.0123,0.104
GDF5,0.0833,0.0977,0.17,0.0153,0.124
MBD4,0.112,0.273,0.308,0.0244,0.192
UEVLD,0.168,0.159,0.555,0.0634,0.283
IQGAP2,0.0862,0.0734,0.262,0.00682,0.0717
PARVB,0.178,0.238,0.302,0.0438,0.343
FBXW8,0.0448,0.264,0.347,0.0198,0.101
PYROXD2,0.164,0.191,0.338,0.073,0.277
AMOTL2,0.126,0.307,0.367,0.0555,0.161
MID2,0.0779,0.262,0.158,0.0137,0.199
PRKD2,0.105,0.0896,0.444,0.000266,0.13
MINK1,0.128,0.24,0.242,0.0274,0.251
ANKRD49,0.0581,0.188,0.272,0.0194,0.189
ANOS1,0.0855,0.264,0.367,0.0331,0.317
EXOSC7,0.0974,0.0741,0.232,0.0143,0.104
CCDC183,0.116,0.129,0.227,0.0315,0.302
ZNF80,0.0585,0.199,0.297,0.0195,0.268
SPTBN1,0.246,1.02,0.589,0.031,0.223
DNAJC12,0.13,0.46,0.352,0.0537,0.427
